Experimental data reported in PMC4813545.

By UniProt entry, the sequences of proteins in these tests, tags left out.
UniProt Q8TCU6: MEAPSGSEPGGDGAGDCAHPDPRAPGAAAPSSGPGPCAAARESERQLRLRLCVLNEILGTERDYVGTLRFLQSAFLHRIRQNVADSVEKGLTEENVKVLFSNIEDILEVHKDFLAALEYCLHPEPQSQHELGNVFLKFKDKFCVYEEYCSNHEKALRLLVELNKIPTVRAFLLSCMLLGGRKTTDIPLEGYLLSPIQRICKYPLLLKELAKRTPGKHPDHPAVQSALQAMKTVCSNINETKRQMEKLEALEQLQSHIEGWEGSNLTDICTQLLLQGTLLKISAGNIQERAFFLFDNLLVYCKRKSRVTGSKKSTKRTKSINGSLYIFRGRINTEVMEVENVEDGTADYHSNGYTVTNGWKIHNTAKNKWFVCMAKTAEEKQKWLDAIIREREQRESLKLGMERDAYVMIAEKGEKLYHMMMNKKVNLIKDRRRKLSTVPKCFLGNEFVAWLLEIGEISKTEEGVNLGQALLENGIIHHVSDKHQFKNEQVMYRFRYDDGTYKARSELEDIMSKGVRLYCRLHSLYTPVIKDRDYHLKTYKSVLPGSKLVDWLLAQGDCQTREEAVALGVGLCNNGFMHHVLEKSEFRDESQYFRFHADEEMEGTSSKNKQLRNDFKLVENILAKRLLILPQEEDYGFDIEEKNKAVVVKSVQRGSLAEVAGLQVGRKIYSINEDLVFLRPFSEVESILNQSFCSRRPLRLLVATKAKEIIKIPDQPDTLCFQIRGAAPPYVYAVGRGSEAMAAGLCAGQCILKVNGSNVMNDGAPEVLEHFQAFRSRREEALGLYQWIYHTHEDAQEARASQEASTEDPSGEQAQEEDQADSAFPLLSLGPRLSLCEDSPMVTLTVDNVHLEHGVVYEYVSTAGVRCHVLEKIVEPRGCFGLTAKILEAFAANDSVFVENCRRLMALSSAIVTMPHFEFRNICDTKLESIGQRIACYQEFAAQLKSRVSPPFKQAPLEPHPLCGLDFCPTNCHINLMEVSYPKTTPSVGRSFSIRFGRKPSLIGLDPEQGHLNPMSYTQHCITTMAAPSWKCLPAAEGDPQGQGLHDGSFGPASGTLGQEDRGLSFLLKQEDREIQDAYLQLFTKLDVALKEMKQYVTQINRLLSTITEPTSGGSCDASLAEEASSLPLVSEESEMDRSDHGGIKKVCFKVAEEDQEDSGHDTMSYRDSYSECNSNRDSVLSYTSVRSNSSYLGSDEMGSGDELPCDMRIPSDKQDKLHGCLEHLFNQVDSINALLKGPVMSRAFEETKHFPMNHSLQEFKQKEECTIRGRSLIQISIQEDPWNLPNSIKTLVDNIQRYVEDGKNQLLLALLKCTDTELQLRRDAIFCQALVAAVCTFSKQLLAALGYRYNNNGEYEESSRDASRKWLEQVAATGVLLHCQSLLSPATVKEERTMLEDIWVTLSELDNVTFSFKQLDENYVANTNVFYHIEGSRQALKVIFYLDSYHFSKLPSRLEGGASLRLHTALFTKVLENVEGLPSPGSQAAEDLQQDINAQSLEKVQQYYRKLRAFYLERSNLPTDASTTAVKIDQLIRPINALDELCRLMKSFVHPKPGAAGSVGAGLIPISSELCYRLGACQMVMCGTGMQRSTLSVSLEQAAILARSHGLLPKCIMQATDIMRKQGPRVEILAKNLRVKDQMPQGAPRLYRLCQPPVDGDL
UniProt Q922D8: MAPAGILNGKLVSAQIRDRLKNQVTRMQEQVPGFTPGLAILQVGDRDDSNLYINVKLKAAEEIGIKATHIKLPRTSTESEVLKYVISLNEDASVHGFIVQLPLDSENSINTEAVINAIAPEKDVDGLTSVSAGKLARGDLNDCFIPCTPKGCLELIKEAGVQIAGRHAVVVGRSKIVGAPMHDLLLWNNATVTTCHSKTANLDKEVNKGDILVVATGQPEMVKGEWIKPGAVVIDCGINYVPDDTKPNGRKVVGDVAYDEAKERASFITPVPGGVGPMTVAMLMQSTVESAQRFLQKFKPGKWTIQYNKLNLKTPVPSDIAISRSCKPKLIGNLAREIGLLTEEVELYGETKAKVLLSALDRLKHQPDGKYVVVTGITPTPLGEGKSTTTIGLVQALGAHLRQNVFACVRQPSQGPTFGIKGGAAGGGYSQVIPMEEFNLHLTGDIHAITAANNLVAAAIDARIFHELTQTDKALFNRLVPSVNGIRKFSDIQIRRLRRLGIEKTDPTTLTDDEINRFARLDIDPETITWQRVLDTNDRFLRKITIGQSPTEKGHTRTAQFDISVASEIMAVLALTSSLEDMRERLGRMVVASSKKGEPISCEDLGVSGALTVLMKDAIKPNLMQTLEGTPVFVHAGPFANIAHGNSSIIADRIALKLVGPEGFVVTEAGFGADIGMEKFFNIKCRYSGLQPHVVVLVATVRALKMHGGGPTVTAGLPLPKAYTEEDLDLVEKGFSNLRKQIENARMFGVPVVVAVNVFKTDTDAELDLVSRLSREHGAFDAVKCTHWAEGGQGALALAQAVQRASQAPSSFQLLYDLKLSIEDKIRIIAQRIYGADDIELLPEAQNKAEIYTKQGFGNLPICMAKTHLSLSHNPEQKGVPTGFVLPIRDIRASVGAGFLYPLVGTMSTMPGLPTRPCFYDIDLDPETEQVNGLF
UniProt O08599: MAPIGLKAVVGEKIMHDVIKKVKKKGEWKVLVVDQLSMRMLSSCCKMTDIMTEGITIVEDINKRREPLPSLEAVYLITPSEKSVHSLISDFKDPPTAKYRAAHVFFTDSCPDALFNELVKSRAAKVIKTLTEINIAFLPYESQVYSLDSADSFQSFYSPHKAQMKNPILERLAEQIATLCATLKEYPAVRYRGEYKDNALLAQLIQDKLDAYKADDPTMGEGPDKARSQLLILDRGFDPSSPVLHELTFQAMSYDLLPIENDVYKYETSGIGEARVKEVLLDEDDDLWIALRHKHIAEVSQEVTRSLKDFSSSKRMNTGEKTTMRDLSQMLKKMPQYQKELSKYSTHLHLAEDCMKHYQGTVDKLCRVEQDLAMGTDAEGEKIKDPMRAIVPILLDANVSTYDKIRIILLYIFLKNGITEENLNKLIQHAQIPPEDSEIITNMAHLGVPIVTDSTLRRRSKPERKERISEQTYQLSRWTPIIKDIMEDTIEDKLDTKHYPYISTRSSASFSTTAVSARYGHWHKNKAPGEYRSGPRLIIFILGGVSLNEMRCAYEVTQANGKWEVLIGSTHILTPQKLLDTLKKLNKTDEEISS

Target: purified recombinant human full-length EE-P-Rex1 protein (human) (UniProt Q8TCU6)
Assay: affinity purification with mass spectrometry; 10 μg purified EE-P-Rex1 immobilised on EE antibody coupled to protein G-Sepharose, incubated 2 h at 4 °C with anion exchange fractions of P-Rex1-/- mouse brain cytosol adjusted to 150 mM NaCl; control EE-antibody beads alone; bands cut from silver-stained SDS-PAGE gels, LC/MS; only the target purified

| binding | Molecule |
| --- | --- |
| binds | C1TC from P-Rex1-/- mouse brain cytosol (from UniProt Q922D8 1-935) |
| binds | STXB1 from P-Rex1-/- mouse brain cytosol (from UniProt O08599 1-594) |
| binds | Norbin (Neurochondrin, NCDN) from P-Rex1-/- mouse brain cytosol (protein, UniProt Q9Z0E0 1-729) MSCCDLAAAGQLGKAGIMASDCEPALNQAESRNPTLERYLGALREAKNDSEQFAALLLVTKAVKAGDIDAKTRRRIFDAVGFTFPNRLLTTKEAPDGCPDHVLRALGVALLACFCSDPELASHPQVLNKIPILSTFLTARGDPDDAARRSMIDDTYQCLTAVAGTPRGPRHLIAGGTVSALCQAYLGHGYGFDQALALLVGLLAAAETQCWKEAEPDLLAVLRGLSEDFQRAEDASKFELCQLLPLFLPPTTVPPECHRDLQAGLARILGSKLSSWQRNPALKLAARLAHACGSDWIPVGSSGSKFLALLVNLACVEVRLALEETGTEVKEDVVTACYALMELGIQECTRCEQSLLKEPQKVQLVSIMKEAIGAVIHYLLQVGPEKQKEPFVFASVRILGAWLAEETSSLRKEVCQLLPFLVRYAKTLYEEAEEASDISQQVANLAISPTTPGPSWPGDALRLLLPGWCHLTVEDGPREILIKEGAPSLLCKYFLQQWELTSPGHDTSVLPDSVEIGLQTCCHIFLNLVVTAPGLIKRDACFTSLMNTLMTSLPSLVQQQGRLLLAANVATLGLLMARLLSTSPALQGTPASRGFFAAAILFLSQSHVARATPGSDQAVLALSPDYEGIWADLQELWFLGMQAFTGCVPLLPWLAPAALRSRWPQELLQLLGSVSPNSVKPEMVAAYQGVLVELARANRLCREAMRLQAGEETASHYRMAALEQCLSEP |

Results are given in words; binding and its absence hold for the method and conditions named. Binding seen in cells or lysates may run through a third protein. These calls come from enrichment with a bait or labelling near it, and not all partners need be listed.
